From PubChem BioAssay AID1671190 (National Center for Advancing Translational Sciences (NCATS), 2021)
Hit rate of the full screen: of about 580,000 compounds, about 6,100 (1.1%) were called active. This list was built around the results that the source calls inconclusive (neither active nor inactive); the mix of calls is not that of the screen. Calls follow the shape of the dose curve; as a rule, active = well fitted inhibition curve with a large enough effect; inconclusive = small, poorly fitted or top-dose-only effect, or another doubt; inactive = no such curve, though single readings can be large or run the other way. Where the call is inconclusive, the potency comes from a doubtful curve fit.

Protein sequences, listed by entry. Tags and fused reporters are not part of them.
UniProt P18054, whole entry, looked up: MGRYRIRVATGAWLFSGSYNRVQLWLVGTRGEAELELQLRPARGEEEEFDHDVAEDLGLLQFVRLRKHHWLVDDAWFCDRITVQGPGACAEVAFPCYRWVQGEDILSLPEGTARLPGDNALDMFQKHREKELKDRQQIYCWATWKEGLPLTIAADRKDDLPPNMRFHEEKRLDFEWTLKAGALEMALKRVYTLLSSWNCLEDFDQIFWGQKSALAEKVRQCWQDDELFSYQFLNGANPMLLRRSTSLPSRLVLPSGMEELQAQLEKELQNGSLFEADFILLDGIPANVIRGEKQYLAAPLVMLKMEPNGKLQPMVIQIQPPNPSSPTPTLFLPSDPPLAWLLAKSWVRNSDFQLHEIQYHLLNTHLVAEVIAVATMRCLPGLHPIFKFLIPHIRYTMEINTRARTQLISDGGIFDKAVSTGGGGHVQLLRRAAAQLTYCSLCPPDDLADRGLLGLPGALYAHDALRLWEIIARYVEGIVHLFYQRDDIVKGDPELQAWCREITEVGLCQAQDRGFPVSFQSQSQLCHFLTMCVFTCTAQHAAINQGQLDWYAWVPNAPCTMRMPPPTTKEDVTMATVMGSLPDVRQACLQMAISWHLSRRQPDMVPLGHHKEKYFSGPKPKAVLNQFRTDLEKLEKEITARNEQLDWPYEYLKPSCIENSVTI

target: Polyunsaturated fatty acid lipoxygenase ALOX12 (Homo sapiens) (UniProt P18054); assay: Primary qHTS assay for inhibitors of human arachidonate 12S-lipoxygenase (ALOX12): Round 2; settings: purified 12hLO, xylenol orange hydroperoxide absorbance; activity change, negative = inhibition: at 108 µM (top of the series) unless noted
In short: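 Hydroperoxide product was detected by ferrous iron/xylenol orange as the 573 to 405 nm absorbance ratio. Arachidonic acid at 40 uM (final) was turned over for 30 min at room temperature by 150 nM human 12hLO, pH 7.0 Hepes buffer, after 15 min compound preincubation.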
% is scaled to controls: 0 for no effect and ±100 for the full control effect; potency is read from the fitted curve at half-maximal effect.

Question: O=[N+]([O-])c1cccc(S(=O)(=O)NCCNS(=O)(=O)c2cccc([N+](=O)[O-])c2)c1 was tested. Which activity change, negative = inhibition did it give?
Answer: inactive: -12.8% [at 22.9 µM]

Question: How did the Potency turn out when CC(C)c1nc2c(c(-c3ccc(Cl)cc3)n1)CCN(Cc1ccsc1)CC2 was run?
Answer: inconclusive: 89.1 µM [inhibitor, partial curve, poor fit]

Question: Which Potency does the source give for COc1cccc(NC(=O)c2cccc(Cl)c2)c1 here?
Answer: inconclusive: 50.1 µM [inhibitor, partial curve, poor fit]

Question: Which Potency does the source give for O=C(CCCOc1ccccc1)Nc1cccc(S(=O)(=O)N2CCCCCC2)c1 here?
Answer: inconclusive: 141 µM [inhibitor, single point]

Question: Which Potency does the source give for COc1ccc(-c2cc(-c3ccncc3)c3cncn3c2)cc1 here?
Answer: inconclusive: 11.2 µM [inhibitor, full curve]

Question: For CCc1ccccc1NC1=NCC(=O)N1Cc1ccccc1, which Potency is on record?
Answer: inconclusive: 39.8 µM [inhibitor, partial curve, poor fit]

Question: With CCN(CC)S(=O)(=O)c1ccc(OC)c(NC(=O)C2CC(=O)N(c3ccc4c(c3)OCCO4)C2)c1 (stereo unspecified) as the molecule, how does the “activity change, negative = inhibition” value read?
Answer: inactive: 11.6%

Question: Which “activity change, negative = inhibition” value does the source give for C=CCN1C(=O)C(Cc2ccc(F)cc2)S/C1=N/N=C/c1cccs1 (stereo unspecified) here?
Answer: inactive: 18.8%

Question: For Cc1cnc(C(=O)OCC(=O)Nc2cc(-c3cc(C)c(C)cc3C)nn2-c2ccccc2)cn1, which Potency is on record?
Answer: inconclusive: 126 µM [inhibitor, partial curve, poor fit]

Question: How did the “activity change, negative = inhibition” value turn out when CCC(=O)Nc1ccc2oc(-c3ccc(OC)c(Br)c3)nc2c1 was run?
Answer: inactive: -6.48%

Question: For CC(=O)c1c(C)[nH]c(C(=O)OCC(=O)NCc2ccc(Cl)cc2)c1C, which “activity change, negative = inhibition” value is on record?
Answer: inactive: 0%

Question: With Cc1nc(SCC(=O)NC(=O)NC2CCCCC2)nc(C)c1C as the molecule, how does the “activity change, negative = inhibition” value read?
Answer: inactive: 0%

Question: CCOCCCNC(=O)NC1CCN(c2ccc(OC)cc2)C1=O (stereo unspecified) was tested. Which “activity change, negative = inhibition” value did it give?
Answer: inactive: -0.43%

Question: How did the “activity change, negative = inhibition” value turn out when CCCOc1ccc(C(N)=O)cc1 was run?
Answer: inactive: 55.7%

Question: Which Potency does the source give for COc1ccc(OCc2ccc(-c3nc(C#N)c(NC(C)c4ccccc4)o3)o2)cc1 (stereo unspecified) here?
Answer: inconclusive: 141 µM [inhibitor, partial curve, poor fit]

Question: Which Potency does the source give for COc1ccc(CNC(C)C2COc3ccccc3O2)c(OC)c1 (stereo unspecified) here?
Answer: inconclusive: 2 µM [inhibitor, full curve, poor fit]

Question: For COc1ccc(NC(=O)CSc2nccn2Cc2ccccc2)c(OC)c1, which “activity change, negative = inhibition” value is on record?
Answer: inactive: 278%

Question: Which “activity change, negative = inhibition” value does the source give for CCC(=O)Nc1ccc(C(=O)Cn2ncc(Cl)c(Cl)c2=O)cc1 here?
Answer: inactive: 4.08%

Question: Which Potency does the source give for Cc1nn(CC(=O)Nc2ccc(OC(F)(F)F)cc2)c(=O)c2c(C)n(-c3ccc(Cl)cc3)nc12 here?
Answer: inconclusive: 251 µM [inhibitor, partial curve, poor fit]

Question: Cc1ccc(NC(=O)CSc2nc3ccccc3c(=O)n2CCCC(=O)NCCCN2CCOCC2)cc1C was tested. Which Potency did it give?
Answer: inconclusive: 50.1 µM [inhibitor, partial curve, poor fit]

Question: CCn1c2ccccc2c2cc(NC(C)=O)ccc21 was tested. Which Potency did it give?
Answer: inconclusive: 14.1 µM [inhibitor, partial curve, poor fit]

Question: How did the Potency turn out when Cc1cccc(C)c1Nc1c(-c2ccccn2)nc2c(C)cccn12 was run?
Answer: inconclusive: 126 µM [inhibitor, single point]

Question: How did the “activity change, negative = inhibition” value turn out when CCOC(=O)c1oc2cc(OCC(N)=O)ccc2c(=O)c1-c1ccc(Br)cc1 was run?
Answer: inactive: -19.4%

Question: With CC(C)NC(=O)N1CCNc2cnc(Nc3cccc(C(F)(F)F)c3)nc2C1 as the molecule, how does the Potency read?
Answer: inconclusive: 6.31 µM [inhibitor, full curve, poor fit]

Question: How did the Potency turn out when COc1ccc(CCNC(=O)c2nc(-c3ccc(Cl)cc3)n3c2CCCCC3)c(OC)c1 was run?
Answer: inconclusive: 14.1 µM [inhibitor, partial curve, poor fit]

Question: Cc1c(-c2ccccc2)[nH]c2ccc(Cl)cc12 was tested. Which Potency did it give?
Answer: inconclusive: 50.1 µM [inhibitor, partial curve, poor fit]

Question: How did the Potency turn out when O=C(Cc1cccs1)NC1CC(=O)N(c2ccc(F)cc2)C1 (stereo unspecified) was run?
Answer: inconclusive: 158 µM [inhibitor, partial curve, poor fit]

Question: For CN(CC(=O)N(C1CCCCC1)C1CCS(=O)(=O)C1)c1ccc2ccccc2c1 (stereo unspecified), which “activity change, negative = inhibition” value is on record?
Answer: inactive: -5.52%

Question: With Cc1cc(C)c2sc(NNC(=O)C3COc4ccccc4O3)nc2c1 (stereo unspecified) as the molecule, how does the Potency read?
Answer: inconclusive: 44.7 µM [inhibitor, partial curve, poor fit]

Question: With CCCc1ccc(O)c(N=Cc2cc(Br)cc(OCC)c2O)c1 as the molecule, how does the Potency read?
Answer: inconclusive: 56.2 µM [inhibitor, partial curve, poor fit]

Question: How did the Potency turn out when COc1ccc(-n2c(=O)[nH]cc(C(=O)N3CCc4ccccc43)c2=O)cc1 was run?
Answer: inconclusive: 0.199 µM [inhibitor, full curve, poor fit]

Question: Which Potency does the source give for CCN1CCCC1CNC(=O)c1ccc2nc(C)c(C)nc2c1 (stereo unspecified) here?
Answer: inconclusive: 20 µM [inhibitor, partial curve, poor fit]

Question: Which activity change, negative = inhibition does the source give for CC(=O)Nc1ccc(CN2CCC3(C2)C(=O)N(c2ccccc2)c2ccccc23)cc1 (stereo unspecified) here?
Answer: inactive: 3.95% [at 6.33 µM]

Question: Which “activity change, negative = inhibition” value does the source give for Cc1cc(=O)n(CC(=O)N2CCCC2)c(-c2ccccc2)n1 here?
Answer: inactive: 52.6%

Question: For COc1ccc(-c2nc3ccccc3s2)cc1NC(=O)c1ccccc1F, which Potency is on record?
Answer: inconclusive: 89.1 µM [inhibitor, partial curve, poor fit]

Question: How did the “activity change, negative = inhibition” value turn out when CCOC(=O)Cc1c(C)nc2cc(-c3ccc(C(C)(C)C)cc3)[nH]n2c1=O was run?
Answer: inactive: 3.47%

Question: With COc1cccc(N2CCN(Cc3cccnc3)CC2)c1 as the molecule, how does the Potency read?
Answer: inconclusive: 0.891 µM [inhibitor, full curve, poor fit]

Question: How did the Potency turn out when CC1CCCN1Cc1c(C(=O)N2CCCCCCC2)nc2sccn12 (stereo unspecified) was run?
Answer: inconclusive: 22.4 µM [inhibitor, full curve]

Question: How did the Potency turn out when Nc1cc(Oc2ccc(Cl)cc2Cl)nc(N)n1 was run?
Answer: inconclusive: 126 µM [inhibitor, single point]

Question: For O=C(Nc1ccc(OC(F)(F)F)cc1)N1CCc2nc(NCc3cccc(Oc4ccccc4)c3)ncc2C1, which Potency is on record?
Answer: inconclusive: 39.8 µM [inhibitor, partial curve, poor fit]

Question: How did the “activity change, negative = inhibition” value turn out when COC(c1ccccc1)c1nnc(CCC(=O)N2CCCCCCC2)o1 (stereo unspecified) was run?
Answer: inactive: -8.09%

Question: Which “activity change, negative = inhibition” value does the source give for O=C(c1cc2ccccc2oc1=O)N(Cc1ccc2c(c1)OCO2)Cc1ccco1 here?
Answer: inactive: 0%

Question: How did the Potency turn out when CC(C)CCn1c(N2CCN(Cc3c(F)cccc3Cl)CC2)nc2c1c(=O)[nH]c(=O)n2C was run?
Answer: inconclusive: 112 µM [inhibitor, partial curve, poor fit]

Question: For Cc1cc(N)c2cc(NC(=O)Nc3ccc4nc(C)cc(N)c4c3)ccc2n1, which Potency is on record?
Answer: inconclusive: 25.1 µM [inhibitor, partial curve, poor fit]

Question: With CCc1ccc(CNCc2ccco2)cc1 as the molecule, how does the Potency read?
Answer: inconclusive: 50.1 µM [inhibitor, partial curve, poor fit]

Question: Which Potency does the source give for NC(CCc1ccccc1)c1csc(NC(=O)Nc2cccc(C(F)(F)F)c2)n1 (stereo unspecified) here?
Answer: inconclusive: 70.8 µM [inhibitor, partial curve, poor fit]

Question: With CCC(=O)N1CCc2cc(Br)cc(S(=O)(=O)CCC(=O)N3CCN(c4cccc(C)c4)C(C)C3)c21 (stereo unspecified) as the molecule, how does the “activity change, negative = inhibition” value read?
Answer: inactive: -5.88%

Question: For CC1=C(C(=O)OC2CCCCCCC2)C(c2cccc(O)c2)NC(=O)N1 (stereo unspecified), which Potency is on record?
Answer: inconclusive: 35.5 µM [inhibitor, single point]

Question: Which “activity change, negative = inhibition” value does the source give for COc1ccc(C(=O)Nc2ccc3nc(SCC(=O)N4CCc5ccccc54)sc3c2)cc1 here?
Answer: inactive: -19.2%

Question: Which Potency does the source give for CC(=O)NC1(C)CCN(Cc2cnc(-c3ccccc3)s2)CC1 here?
Answer: inconclusive: 44.7 µM [inhibitor, full curve]

Question: For Cc1ccc(S(=O)(=O)N2CCN(C(=O)CCC(=O)NCc3cccc(C(F)(F)F)c3)CC2)cc1, which Potency is on record?
Answer: inconclusive: 50.1 µM [inhibitor, partial curve, poor fit]

Question: For Cc1[nH]c2ccccc2c1C(=O)C(C)OC(=O)c1ccc2c(c1)NC(=O)CS2 (stereo unspecified), which Potency is on record?
Answer: inconclusive: 79.4 µM [inhibitor, single point]

Question: Which Potency does the source give for CCOc1ccc2c(c1)/C(=C(\C(Cl)=C(Cl)Cl)[N+](=O)[O-])N2 here?
Answer: inconclusive: 31.6 µM [inhibitor, partial curve]

Question: Cc1cncc(N2CCN(c3ccccn3)CC2)n1 was tested. Which Potency did it give?
Answer: inconclusive: 79.4 µM [inhibitor, single point]

Question: CC(C)Oc1ccc2c(NC(=O)CCn3cnnn3)nn(CC(F)(F)F)c2c1 was tested. Which “activity change, negative = inhibition” value did it give?
Answer: inactive: 7.39%

Question: For Cc1ccc(CN2C(=O)NC3(CCCN(C(=O)c4cccc(Cl)c4)C3)C2=O)cc1 (stereo unspecified), which Potency is on record?
Answer: inconclusive: 22.4 µM [inhibitor, partial curve, poor fit]

Question: Which “activity change, negative = inhibition” value does the source give for O=C(Nc1nc(-c2cccc3ccccc23)cs1)c1ccc2c(c1)S(=O)(=O)c1ccccc1C2=O here?
Answer: inactive: -9.98%

Question: CCOC(=O)c1cc(C(=O)OCC)c(=O)[nH]c1SCc1ccccc1 was tested. Which Potency did it give?
Answer: inconclusive: 3.16 µM [inhibitor, full curve, poor fit]

Question: Which Potency does the source give for O=S1(=O)N[C@@H](Cc2ccccc2)COc2cc(NCCCN3CCOCC3)ccc21 here?
Answer: active: 50.1 µM

Question: Which Potency does the source give for O=C(CSc1nc2ccccc2[nH]1)Nc1nc(-c2cccc(Br)c2)cs1 here?
Answer: inconclusive: 126 µM [inhibitor, partial curve, poor fit]

Question: Which Potency does the source give for Clc1ccc(/C=N\Nc2ccccc2)cc1 here?
Answer: inconclusive: 70.8 µM [inhibitor, partial curve, poor fit]

Question: For COc1ccccc1-c1cnc(Nc2cccnc2)c2c1CCO2, which “activity change, negative = inhibition” value is on record?
Answer: inactive: 63.7% [at 176 µM]

Question: C#CCNC(=O)CN1CCN(C(=O)c2ccc(F)cc2)CC1 was tested. Which Potency did it give?
Answer: inconclusive: 35.5 µM [inhibitor, partial curve]

Question: With COc1ccc(/C=C/C(=O)Nc2cccc(S(=O)(=O)N3CCOCC3)c2)cc1OC as the molecule, how does the Potency read?
Answer: inconclusive: 112 µM [inhibitor, single point]

Question: How did the “activity change, negative = inhibition” value turn out when COc1cccc(C(=O)NCc2ccc3c(c2)OCO3)c1OC was run?
Answer: inactive: 4.65%

Question: For O=[N+]([O-])c1ccccc1/C=C/C=N/Nc1ccc(S(=O)(=O)Nc2ccc(Cl)cc2)cc1[N+](=O)[O-], which Potency is on record?
Answer: inconclusive: 126 µM [inhibitor, single point]
